This is one part of the list.
Compound: C1=CC=C(C=C1)C2=NC(=C(N2)C3=CC=NC=C3)C4=CC(=C(C=C4)Cl)O
Assay: log2 fold change, soluble protein after heating vs DMSO (PISA); higher = thermal stabilisation; K562 lysate, 10 uM; active = over 0.2 and 3.5 SD of the protein, either way, in both replicates (recomputed)
Summary of the method: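 Log-two fold change in thermal stability relative to solvent controls is reported from duplicates. For each sample, crude K562 extract from dounce-homogenised pellets in PBS pH 7.4 with 1 mM MgCl2, at 1 mg/mL protein, was treated with 10 μM compound for 30 min. Aliquots heated for 3 min across 48°C-58°C were pooled, brought to 0.5% NP-40 at 4°C and cleared at 21,000xg for 90 min. The supernatant was quantified by TMTpro 16plex LC-MS/MS with channel sums equalised.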

Protein sequences, listed by entry. Tags and fused reporters are not part of them. Lines headed by an entry give the natural chain unless they say otherwise; changes in a name come on top.
UniProt Q15013: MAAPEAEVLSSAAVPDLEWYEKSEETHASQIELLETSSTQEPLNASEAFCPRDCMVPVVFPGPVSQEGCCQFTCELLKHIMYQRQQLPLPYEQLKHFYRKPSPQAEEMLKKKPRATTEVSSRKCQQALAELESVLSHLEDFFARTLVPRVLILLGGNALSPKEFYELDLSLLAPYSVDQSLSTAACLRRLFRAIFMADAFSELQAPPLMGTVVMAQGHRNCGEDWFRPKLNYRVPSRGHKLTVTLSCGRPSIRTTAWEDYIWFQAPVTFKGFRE
UniProt Q9NU23: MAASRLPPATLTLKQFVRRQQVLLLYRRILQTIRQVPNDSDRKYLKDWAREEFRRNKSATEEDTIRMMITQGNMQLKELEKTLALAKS
UniProt Q7Z3D4: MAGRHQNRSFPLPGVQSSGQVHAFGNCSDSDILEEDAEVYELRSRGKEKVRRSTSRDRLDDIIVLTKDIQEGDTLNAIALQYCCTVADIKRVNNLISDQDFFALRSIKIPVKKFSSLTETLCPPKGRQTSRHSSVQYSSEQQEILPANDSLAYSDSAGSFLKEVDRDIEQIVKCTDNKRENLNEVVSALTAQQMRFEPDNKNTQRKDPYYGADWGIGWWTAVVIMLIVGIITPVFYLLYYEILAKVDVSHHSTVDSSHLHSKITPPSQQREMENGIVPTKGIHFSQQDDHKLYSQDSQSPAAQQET
UniProt P46821: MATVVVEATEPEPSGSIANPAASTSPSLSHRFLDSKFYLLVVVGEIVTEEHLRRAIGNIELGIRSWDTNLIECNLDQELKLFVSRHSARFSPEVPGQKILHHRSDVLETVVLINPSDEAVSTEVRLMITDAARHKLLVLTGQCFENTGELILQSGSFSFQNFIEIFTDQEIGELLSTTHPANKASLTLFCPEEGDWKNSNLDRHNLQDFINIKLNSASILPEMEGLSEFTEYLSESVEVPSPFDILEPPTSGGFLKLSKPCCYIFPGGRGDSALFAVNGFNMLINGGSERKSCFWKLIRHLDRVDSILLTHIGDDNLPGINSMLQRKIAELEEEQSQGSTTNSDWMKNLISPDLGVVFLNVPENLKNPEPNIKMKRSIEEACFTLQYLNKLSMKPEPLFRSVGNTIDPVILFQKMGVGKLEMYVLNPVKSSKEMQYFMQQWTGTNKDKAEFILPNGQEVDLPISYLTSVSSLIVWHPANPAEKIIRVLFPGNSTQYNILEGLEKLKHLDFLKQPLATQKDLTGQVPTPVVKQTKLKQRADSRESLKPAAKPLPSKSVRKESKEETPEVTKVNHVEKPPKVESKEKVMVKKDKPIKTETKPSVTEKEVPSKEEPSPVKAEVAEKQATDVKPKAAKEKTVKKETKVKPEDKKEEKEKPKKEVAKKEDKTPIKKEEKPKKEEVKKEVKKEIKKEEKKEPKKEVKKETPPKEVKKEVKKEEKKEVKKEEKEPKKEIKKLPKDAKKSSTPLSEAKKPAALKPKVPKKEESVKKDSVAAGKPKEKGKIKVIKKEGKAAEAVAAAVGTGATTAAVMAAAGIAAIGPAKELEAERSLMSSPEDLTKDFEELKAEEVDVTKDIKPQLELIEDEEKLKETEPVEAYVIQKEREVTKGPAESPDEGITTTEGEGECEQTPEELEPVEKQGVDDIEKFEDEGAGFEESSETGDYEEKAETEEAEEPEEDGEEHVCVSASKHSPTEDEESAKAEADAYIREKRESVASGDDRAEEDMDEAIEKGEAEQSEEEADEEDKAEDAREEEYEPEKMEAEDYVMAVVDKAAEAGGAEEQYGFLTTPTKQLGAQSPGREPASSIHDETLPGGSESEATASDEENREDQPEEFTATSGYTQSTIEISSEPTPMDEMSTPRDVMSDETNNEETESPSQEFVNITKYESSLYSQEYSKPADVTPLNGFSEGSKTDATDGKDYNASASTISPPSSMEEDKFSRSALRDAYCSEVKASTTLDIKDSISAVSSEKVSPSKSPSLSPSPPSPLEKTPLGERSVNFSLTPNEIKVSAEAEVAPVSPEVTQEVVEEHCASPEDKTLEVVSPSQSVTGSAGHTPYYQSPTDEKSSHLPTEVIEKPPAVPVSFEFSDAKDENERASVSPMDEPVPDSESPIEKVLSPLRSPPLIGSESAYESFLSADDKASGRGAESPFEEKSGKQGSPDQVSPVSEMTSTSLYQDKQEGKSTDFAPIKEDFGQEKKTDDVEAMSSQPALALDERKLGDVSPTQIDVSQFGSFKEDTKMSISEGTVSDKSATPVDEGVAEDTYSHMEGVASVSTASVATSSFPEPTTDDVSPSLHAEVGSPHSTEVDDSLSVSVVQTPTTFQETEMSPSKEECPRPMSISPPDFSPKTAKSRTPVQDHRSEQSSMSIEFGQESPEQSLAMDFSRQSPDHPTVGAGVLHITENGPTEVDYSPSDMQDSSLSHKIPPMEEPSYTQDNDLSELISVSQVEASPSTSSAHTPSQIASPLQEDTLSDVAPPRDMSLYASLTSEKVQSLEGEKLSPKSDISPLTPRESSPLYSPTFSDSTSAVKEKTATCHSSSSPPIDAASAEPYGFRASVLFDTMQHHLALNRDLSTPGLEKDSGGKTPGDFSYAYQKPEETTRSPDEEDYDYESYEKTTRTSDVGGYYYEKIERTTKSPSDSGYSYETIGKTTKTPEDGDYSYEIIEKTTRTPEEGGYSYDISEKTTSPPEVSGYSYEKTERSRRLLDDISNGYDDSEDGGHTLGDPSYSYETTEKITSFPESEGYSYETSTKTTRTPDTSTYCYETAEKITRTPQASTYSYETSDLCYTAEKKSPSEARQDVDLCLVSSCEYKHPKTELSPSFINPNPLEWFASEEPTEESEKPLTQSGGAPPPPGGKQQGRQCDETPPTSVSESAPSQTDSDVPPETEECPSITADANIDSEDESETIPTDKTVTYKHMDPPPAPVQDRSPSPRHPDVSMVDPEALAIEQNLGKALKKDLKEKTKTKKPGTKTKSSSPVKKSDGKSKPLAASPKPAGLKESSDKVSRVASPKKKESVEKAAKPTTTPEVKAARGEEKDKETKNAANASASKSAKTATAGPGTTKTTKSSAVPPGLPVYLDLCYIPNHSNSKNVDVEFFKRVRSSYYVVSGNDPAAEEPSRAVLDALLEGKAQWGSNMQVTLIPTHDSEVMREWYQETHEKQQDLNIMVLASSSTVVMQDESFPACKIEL
UniProt Q5VWZ2: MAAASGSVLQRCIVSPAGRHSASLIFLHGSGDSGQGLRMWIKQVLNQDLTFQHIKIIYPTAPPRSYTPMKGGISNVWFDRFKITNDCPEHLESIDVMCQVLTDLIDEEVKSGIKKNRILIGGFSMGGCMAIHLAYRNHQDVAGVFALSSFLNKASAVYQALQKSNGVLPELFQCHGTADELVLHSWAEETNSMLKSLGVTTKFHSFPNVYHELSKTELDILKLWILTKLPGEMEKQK
UniProt Q8IV50: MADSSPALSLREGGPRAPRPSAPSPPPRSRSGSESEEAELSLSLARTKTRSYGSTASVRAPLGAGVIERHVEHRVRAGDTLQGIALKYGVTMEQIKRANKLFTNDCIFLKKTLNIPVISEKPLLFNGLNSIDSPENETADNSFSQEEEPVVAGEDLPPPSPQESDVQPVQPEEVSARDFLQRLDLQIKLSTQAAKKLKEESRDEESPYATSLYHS
UniProt Q9UNF1: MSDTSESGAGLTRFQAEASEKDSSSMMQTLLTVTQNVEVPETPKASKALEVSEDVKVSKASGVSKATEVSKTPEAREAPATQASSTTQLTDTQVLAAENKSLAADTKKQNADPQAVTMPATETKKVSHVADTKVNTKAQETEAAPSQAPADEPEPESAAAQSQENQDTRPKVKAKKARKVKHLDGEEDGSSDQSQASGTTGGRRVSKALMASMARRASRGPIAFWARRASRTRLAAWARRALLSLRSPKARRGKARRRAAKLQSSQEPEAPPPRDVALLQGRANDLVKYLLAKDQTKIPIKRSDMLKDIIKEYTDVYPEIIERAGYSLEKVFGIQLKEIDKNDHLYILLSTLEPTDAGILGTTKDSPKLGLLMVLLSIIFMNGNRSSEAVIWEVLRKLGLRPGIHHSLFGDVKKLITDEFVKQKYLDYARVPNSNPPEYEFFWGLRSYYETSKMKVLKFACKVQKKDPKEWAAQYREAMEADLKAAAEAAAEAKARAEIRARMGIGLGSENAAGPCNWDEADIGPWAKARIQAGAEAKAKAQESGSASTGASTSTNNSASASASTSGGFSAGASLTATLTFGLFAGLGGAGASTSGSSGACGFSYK
UniProt Q9NZL9, whole entry, looked up: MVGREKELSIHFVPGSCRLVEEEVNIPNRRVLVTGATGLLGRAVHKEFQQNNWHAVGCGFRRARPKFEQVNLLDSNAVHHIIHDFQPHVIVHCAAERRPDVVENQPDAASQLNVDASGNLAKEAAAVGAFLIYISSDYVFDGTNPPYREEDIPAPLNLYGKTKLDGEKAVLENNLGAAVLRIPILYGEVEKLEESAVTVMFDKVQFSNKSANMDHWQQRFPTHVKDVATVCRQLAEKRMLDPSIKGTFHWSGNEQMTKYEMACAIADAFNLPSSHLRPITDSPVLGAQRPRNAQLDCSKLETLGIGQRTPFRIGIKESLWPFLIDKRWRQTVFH
UniProt Q9Y383: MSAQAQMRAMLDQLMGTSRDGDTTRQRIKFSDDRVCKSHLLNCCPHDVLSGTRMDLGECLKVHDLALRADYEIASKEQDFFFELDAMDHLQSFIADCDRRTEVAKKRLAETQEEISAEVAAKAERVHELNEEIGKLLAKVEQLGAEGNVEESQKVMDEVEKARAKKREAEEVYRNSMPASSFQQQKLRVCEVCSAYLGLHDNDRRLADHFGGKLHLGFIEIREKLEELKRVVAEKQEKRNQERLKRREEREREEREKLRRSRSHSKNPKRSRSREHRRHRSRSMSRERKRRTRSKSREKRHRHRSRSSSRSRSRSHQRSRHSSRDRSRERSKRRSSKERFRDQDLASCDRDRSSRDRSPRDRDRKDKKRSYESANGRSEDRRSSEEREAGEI
UniProt P43366: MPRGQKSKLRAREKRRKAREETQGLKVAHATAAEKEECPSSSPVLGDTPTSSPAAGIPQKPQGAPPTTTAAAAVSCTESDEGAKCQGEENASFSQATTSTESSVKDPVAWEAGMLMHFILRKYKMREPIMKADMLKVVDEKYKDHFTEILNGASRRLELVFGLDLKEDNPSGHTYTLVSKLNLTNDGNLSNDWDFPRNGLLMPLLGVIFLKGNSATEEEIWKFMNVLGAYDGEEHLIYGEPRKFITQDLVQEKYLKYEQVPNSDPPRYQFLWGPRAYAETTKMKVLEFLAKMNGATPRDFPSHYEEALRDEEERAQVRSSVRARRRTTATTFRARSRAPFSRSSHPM
UniProt Q8IW41: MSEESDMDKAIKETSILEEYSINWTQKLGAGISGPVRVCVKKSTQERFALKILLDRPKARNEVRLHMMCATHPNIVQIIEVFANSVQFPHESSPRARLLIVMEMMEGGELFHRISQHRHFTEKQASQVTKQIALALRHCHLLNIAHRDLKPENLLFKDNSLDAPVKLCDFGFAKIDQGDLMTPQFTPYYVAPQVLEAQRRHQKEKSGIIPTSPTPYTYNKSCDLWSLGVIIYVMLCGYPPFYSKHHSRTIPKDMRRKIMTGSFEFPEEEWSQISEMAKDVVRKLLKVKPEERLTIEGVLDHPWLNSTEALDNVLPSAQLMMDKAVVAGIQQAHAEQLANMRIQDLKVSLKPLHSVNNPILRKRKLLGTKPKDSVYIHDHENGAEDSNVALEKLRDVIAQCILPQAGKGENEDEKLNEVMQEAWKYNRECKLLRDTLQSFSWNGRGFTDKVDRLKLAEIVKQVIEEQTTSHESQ
UniProt Q96GA3: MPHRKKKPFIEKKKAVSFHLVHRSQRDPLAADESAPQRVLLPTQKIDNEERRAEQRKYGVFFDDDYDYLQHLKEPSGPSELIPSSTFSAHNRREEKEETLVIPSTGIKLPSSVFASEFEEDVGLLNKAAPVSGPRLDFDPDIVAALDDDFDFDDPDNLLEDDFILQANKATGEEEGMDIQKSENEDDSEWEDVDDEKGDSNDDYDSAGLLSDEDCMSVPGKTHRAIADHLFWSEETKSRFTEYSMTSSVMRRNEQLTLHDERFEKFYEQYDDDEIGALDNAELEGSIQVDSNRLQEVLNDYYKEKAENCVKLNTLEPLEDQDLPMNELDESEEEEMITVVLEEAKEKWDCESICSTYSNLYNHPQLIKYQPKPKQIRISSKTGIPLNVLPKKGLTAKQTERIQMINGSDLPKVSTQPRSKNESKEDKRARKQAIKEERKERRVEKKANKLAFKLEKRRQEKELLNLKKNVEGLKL

log2 fold change, inactive:
MAD2L1BP isoform 3 (UniProt Q15013) 0.005
LTN1 isoform 3 (UniProt O94822) -0.022
LYRM2 (UniProt Q9NU23) 0.012
LYSMD3 (UniProt Q7Z3D4) 0.007
MAP2K2 (UniProt P36507) 0.001
MAGEB2 (UniProt O15479) 0.003
MAF1 (UniProt Q9H063) 0.016
LYAR (UniProt Q9NX58) 0.046
MANBA (UniProt O00462) -0.001
MAP1B (UniProt P46821) 0.012
LYPLAL1 (UniProt Q5VWZ2) 0.01
MADD isoform 4 (UniProt Q8WXG6) 0.005
MAGEC1 (UniProt O60732) 0.039
MAGI3 isoform 1 (UniProt Q5TCQ9) 0.026
MAN1A2 (UniProt O60476) -0.014
LYSMD2 (UniProt Q8IV50) 0.007
MAGED2 (UniProt Q9UNF1) 0.036
MAPRE2 (UniProt Q15555) -0.017
MAP3K20 isoform 2 (UniProt Q9NYL2) -0.136
MAT2B (UniProt Q9NZL9) -0.01
LYSMD1 (UniProt Q96S90) 0.009
MAP2K3 isoform 3 (UniProt P46734) -0.037
MARK1 (UniProt Q9P0L2) -0.001
LUC7L2 (UniProt Q9Y383) -0.007
MAP2K1 (UniProt Q02750) -0.006
MAP4 isoform 5 (UniProt P27816) -0.019
MAML2 (UniProt Q8IZL2) -0.02
MAGEB1 (UniProt P43366) -0.028
MAP3K7 (UniProt O43318) 0.028
MAP7D3 (UniProt Q8IWC1) -0.025
MARCKS (UniProt P29966) 0.048
MAPKAPK3 (UniProt Q16644) -0.01
LTF (UniProt P02788) -0.169
MAPKAPK5 (UniProt Q8IW41) -0.024
LUC7L3 (UniProt O95232) 0.003
MAGT1 (UniProt Q9H0U3) -0.031
LTV1 (UniProt Q96GA3) 0.005
LYZ (UniProt P61626) 0.067
MAPK8 isoform 3 (UniProt P45983) 0.017
